Results are given in words; binding and its absence hold for the method and conditions named. Binding seen in cells or lysates may run through a third protein. Some entries that bind do so weakly or less than the wild type.
What was measured:
[1] = target: TCF12 (human (endogenous in HUVECs)) (UniProt Q99081); test: co-IP; 500 ug of nuclear extracts of HUVECs treated 24 h with PBS or 0.3 ug/ml OPN; overnight at 4°C with 10 ug control IgG or anti-TCF12 antibody, protein A/G-Sepharose, immunoblot
[2] = target: CD44 (human (endogenous in HUVECs)) (UniProt P16070); test: proximity ligation; HUVECs treated 45 min with PBS or 0.3 ug/ml OPN, fixed; anti-OPN with anti-integrin αVβ3 or anti-CD44 antibody, Duolink in situ PLA kit; only the binder purified
[3] = target: integrin αVβ3 (human (endogenous in HUVECs)) (UniProt P06756+P05106); test: as above

The chains behind the UniProt entries cited, without tags or fusion partners. Where a name states a change or a piece, a line headed by the entry shows the natural chain unless it says otherwise. Residues count along the entry.
UniProt Q99081: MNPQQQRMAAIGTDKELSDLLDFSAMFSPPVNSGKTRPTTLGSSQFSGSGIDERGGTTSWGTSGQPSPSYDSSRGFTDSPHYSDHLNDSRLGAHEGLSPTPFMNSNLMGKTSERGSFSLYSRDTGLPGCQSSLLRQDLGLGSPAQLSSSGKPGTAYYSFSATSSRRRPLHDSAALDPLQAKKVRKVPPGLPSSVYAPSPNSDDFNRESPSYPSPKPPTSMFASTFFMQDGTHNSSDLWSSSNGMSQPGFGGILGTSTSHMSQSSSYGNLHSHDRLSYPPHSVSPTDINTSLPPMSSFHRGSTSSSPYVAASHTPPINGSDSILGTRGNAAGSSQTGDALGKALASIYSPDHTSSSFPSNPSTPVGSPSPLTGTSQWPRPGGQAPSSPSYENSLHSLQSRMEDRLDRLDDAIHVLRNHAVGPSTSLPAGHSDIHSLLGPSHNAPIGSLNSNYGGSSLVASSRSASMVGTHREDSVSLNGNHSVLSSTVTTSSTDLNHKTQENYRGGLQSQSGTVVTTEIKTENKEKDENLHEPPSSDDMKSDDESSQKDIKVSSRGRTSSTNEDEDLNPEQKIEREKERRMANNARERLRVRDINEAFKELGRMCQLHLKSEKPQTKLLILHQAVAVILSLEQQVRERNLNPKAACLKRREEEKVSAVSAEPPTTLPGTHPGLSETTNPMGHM
UniProt P16070, residues 21-742: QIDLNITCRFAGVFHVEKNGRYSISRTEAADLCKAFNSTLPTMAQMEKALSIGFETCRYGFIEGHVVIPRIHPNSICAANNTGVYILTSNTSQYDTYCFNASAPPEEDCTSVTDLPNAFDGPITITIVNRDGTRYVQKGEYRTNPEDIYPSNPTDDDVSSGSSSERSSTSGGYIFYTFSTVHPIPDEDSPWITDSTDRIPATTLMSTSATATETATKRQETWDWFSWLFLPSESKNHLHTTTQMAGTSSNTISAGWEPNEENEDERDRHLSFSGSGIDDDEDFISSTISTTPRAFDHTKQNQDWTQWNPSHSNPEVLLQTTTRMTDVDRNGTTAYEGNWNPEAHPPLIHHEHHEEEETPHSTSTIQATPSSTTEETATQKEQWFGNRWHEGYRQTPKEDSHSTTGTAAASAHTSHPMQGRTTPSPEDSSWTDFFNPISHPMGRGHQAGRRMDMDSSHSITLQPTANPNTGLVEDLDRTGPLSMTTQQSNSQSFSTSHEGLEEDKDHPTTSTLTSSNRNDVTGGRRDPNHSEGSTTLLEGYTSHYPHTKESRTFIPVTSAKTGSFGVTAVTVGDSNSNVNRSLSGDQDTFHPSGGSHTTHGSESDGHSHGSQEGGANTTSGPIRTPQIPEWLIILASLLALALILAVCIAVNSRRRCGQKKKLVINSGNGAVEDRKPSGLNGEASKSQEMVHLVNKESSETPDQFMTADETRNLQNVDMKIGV
UniProt P06756: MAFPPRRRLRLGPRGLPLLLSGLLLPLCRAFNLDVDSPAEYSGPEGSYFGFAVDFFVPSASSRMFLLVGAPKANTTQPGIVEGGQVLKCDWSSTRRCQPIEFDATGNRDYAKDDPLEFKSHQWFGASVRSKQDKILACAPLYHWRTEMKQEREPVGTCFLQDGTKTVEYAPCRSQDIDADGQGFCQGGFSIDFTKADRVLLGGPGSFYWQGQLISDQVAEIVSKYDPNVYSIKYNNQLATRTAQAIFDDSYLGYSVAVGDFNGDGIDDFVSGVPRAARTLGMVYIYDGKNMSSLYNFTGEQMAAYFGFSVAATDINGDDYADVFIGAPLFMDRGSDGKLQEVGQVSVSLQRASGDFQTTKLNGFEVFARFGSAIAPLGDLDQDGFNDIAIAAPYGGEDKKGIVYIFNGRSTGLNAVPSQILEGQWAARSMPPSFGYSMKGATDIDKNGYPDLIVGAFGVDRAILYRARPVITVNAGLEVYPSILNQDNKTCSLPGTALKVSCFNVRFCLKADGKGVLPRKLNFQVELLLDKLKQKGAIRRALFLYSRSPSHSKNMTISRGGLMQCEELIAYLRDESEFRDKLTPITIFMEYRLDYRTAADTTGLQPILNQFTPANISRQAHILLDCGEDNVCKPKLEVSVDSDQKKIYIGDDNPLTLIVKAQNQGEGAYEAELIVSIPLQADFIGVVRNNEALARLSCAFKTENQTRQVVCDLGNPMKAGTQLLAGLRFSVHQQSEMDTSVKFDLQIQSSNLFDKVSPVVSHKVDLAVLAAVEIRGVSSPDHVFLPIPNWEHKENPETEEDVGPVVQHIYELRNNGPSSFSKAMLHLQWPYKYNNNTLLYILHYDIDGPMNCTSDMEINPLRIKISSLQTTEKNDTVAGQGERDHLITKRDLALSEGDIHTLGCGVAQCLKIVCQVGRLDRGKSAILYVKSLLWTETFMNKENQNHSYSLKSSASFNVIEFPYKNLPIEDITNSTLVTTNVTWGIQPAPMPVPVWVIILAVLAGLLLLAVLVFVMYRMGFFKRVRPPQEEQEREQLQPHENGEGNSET
UniProt P05106: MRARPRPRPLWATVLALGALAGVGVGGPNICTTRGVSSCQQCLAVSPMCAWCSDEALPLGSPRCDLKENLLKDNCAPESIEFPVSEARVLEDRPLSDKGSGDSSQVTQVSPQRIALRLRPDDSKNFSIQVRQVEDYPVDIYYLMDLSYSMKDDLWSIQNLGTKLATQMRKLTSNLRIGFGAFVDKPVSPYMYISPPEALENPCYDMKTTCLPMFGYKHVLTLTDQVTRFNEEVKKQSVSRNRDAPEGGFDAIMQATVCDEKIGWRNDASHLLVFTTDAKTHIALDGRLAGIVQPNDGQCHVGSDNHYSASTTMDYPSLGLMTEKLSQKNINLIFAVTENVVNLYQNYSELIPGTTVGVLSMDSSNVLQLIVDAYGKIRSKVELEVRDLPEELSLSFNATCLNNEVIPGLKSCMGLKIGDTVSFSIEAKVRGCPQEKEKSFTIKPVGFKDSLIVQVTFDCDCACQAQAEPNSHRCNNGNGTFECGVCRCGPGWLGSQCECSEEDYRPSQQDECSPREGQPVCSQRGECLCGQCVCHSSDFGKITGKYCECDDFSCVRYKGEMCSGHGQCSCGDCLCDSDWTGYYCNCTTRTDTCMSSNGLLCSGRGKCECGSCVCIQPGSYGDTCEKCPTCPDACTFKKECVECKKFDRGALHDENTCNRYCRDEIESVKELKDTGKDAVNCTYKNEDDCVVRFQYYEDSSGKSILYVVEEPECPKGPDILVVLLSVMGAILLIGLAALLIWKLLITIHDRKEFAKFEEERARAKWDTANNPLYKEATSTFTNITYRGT
UniProt Q13547: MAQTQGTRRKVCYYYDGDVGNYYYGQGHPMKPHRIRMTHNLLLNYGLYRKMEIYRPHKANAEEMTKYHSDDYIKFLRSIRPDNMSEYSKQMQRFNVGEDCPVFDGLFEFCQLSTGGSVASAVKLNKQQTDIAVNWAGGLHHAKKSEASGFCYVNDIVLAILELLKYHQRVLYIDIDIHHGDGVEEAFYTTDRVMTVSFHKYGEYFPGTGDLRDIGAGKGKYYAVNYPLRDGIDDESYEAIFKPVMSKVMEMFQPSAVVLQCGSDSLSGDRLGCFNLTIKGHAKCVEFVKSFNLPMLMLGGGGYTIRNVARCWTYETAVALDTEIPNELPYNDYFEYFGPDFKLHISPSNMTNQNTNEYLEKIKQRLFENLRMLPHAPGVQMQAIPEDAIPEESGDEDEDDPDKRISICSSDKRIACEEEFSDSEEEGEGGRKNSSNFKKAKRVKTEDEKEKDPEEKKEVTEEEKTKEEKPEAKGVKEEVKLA
UniProt O15379: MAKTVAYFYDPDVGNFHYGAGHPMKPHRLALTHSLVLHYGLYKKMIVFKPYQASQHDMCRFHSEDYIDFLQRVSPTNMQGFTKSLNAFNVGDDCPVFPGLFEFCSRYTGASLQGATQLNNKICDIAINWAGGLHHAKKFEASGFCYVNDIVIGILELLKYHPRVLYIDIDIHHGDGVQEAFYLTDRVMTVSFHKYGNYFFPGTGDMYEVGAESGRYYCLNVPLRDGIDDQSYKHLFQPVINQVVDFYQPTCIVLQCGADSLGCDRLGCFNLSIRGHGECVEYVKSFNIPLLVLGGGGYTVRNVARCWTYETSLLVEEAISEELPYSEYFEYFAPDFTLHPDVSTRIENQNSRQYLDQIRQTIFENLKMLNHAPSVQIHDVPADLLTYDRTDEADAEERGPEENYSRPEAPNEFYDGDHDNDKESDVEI
UniProt P35226: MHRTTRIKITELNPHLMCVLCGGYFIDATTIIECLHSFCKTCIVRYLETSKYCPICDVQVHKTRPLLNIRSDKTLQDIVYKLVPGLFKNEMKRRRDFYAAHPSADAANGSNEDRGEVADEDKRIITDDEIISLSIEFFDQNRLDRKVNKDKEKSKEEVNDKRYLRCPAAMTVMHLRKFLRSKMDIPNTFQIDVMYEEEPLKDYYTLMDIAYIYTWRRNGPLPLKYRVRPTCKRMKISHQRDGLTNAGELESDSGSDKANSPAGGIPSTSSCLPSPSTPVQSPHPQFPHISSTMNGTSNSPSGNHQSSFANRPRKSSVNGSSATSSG
UniProt Q92769: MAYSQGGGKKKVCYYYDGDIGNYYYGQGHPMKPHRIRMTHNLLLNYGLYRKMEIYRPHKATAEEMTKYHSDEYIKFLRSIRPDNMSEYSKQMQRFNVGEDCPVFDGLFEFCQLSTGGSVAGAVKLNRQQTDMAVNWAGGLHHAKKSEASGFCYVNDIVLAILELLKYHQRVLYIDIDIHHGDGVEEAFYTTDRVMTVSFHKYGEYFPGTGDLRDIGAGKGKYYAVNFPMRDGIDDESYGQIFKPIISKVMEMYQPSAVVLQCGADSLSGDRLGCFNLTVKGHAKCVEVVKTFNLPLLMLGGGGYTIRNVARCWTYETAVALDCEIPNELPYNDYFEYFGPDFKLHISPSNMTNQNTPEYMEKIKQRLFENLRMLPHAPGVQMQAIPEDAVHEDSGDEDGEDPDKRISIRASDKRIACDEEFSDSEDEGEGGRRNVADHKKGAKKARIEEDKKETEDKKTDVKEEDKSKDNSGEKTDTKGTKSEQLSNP
UniProt P10451, residues 17-314: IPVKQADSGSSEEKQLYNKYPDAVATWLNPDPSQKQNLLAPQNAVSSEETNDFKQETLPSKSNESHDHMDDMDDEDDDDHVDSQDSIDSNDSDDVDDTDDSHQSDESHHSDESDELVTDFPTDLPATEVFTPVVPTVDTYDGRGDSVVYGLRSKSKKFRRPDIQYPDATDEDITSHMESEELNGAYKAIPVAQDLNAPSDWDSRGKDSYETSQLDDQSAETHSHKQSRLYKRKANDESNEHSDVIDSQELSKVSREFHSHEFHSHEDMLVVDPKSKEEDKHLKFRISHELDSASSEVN

Row | Substance | binding [1] | binding [2] | binding [3]
1 | HDAC1 (from UniProt Q13547 1-482) (enzyme) | binds |  | 
2 | HDAC3 (from UniProt O15379 1-428) (enzyme) | binds |  | 
3 | Bmi1 (from UniProt P35226 1-326) | binds |  | 
4 | HDAC2 (from UniProt Q92769 1-488) (enzyme) | binds |  | 
5 | Osteopontin (from UniProt P10451 17-314) (ligand) |  | binds | binds

— article PMC5797029
